Measurements from patent publication US20080207449A1.
These are yes or no findings as the source states them, for the method shown. Binding seen in cells or lysates may run through a third protein. Some results given as binding are weak or reduced against the parent protein; the word gives no strength. Where a sequence is shown, tags or fusion partners need not be part of it. Values belong to the binder of their own block, whether it stands above or below them.

Chains of the proteins cited; added tags and fusions are not shown. Lines headed by an entry give the natural chain unless they say otherwise; changes in a name come on top. A line that says so, or that is headed by a name, gives the form on record, which may keep a tag or linker.
HA-tagged wild-type AtE2Fb, in vitro translated (Q9FV71, form named): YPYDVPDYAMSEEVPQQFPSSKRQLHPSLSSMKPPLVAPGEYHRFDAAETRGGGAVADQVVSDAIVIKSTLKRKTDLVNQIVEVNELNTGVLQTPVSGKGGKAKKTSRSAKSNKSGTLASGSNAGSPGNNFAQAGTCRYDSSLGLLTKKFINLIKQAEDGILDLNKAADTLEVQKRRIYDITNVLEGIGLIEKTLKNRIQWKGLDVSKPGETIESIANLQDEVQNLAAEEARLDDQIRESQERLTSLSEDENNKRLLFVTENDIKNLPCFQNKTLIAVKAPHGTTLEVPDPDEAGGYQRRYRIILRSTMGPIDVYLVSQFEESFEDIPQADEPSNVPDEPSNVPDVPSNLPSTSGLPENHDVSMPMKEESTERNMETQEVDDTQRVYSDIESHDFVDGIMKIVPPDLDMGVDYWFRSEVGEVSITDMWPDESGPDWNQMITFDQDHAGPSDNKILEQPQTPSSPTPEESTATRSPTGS

Biological target: HA-tagged wild-type AtE2Fb, in vitro translated (Arabidopsis) (UniProt Q9FV71)
Assay: co-immunoprecipitation (anti-c-myc) of in vitro co-translated tagged proteins, SDS-PAGE autoradiography

binding: binds
B1: c-myc-tagged AtDPb 182-263, in vitro translated (protein)
chain: EQKLISEEDLEQKLISEEDLGLPRTSLSDIEELKNERLSLRNRIEKKTAYSQELEEQYVGLQNLIQRNEHLYSSGNAPSGGVALPFILVQTRPHATVEVEI

binding: binds
B2: c-myc-tagged AtDPa 121-292, in vitro translated (protein)
chain: EQKLISEEDLEQKLISEEDLIIARDKKEIRWKGLPITCKKDVEEVKMDRNKVMSSVQKKAAFLKELREKVSSLESLMSRNQEMVVKTQGPAEGFTLPFILLETNPHAVVEIEISEDMQLVHLDFNSTPFSVHDDAYILKLMQEQKQEQNRVSSSSSTHHQSQHSSAHSSSSSCIASGTSGPVCWNSGSIDTR
